± gives the standard deviation of the averaged measurements. This is a selection; strong and weak results do not stand in their true shares.
Compound: Nc1ncnc2c1ncn2[C@@H]1O[C@H](COP(=O)(O)OP(=O)(O)OP(=O)(O)O)[C@@H](O)[C@H]1O [adenosine triphosphate]
Experiment: NP40-soluble protein abundance relative to vehicle (solubility fold change) (ratio); higher = more soluble protein in presence of ATP
Outline: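 Across three independent experiments, values are fold changes against the detergent-processed vehicle for each replicate, based on vsn-normalised intensities. The samples were Jurkat crude lysate treated with eight concentrations (0.1 to 10 mM) for 10 min at room temperature and then 3 min at 37 °C. Lysate was solubilised with 0.8% NP40 and benzonase, ultracentrifuged, and the supernatant analysed by TMT-labelled LC-MS/MS.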

The chains behind the UniProt entries cited, without tags or fusion partners. Where a name states a change or a piece, a line headed by the entry shows the natural chain unless it says otherwise.
UniProt O60906: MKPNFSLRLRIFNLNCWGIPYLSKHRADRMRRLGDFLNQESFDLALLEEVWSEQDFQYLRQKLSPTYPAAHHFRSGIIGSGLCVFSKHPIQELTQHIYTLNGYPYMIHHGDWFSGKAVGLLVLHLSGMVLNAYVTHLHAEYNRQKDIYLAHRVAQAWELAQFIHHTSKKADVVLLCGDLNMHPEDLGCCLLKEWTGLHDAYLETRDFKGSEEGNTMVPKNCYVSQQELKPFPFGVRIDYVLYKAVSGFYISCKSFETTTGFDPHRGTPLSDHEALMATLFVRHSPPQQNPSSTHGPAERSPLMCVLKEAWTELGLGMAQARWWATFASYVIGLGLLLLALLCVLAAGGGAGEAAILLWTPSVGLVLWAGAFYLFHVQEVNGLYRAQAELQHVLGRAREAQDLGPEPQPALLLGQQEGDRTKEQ
UniProt O76071: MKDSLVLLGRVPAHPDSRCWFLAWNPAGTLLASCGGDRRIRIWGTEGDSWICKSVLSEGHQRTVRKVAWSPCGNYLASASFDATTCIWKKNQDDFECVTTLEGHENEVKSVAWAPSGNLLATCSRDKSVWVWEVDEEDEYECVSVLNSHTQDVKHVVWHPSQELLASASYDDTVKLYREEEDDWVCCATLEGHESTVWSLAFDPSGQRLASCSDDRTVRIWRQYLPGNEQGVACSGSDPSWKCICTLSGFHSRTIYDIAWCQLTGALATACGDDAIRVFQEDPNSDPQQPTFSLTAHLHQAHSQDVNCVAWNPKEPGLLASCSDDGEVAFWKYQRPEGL
UniProt O75964: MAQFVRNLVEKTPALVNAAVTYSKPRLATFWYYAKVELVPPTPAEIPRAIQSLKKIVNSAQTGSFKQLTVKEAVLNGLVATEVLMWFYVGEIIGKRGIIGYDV
UniProt O75529: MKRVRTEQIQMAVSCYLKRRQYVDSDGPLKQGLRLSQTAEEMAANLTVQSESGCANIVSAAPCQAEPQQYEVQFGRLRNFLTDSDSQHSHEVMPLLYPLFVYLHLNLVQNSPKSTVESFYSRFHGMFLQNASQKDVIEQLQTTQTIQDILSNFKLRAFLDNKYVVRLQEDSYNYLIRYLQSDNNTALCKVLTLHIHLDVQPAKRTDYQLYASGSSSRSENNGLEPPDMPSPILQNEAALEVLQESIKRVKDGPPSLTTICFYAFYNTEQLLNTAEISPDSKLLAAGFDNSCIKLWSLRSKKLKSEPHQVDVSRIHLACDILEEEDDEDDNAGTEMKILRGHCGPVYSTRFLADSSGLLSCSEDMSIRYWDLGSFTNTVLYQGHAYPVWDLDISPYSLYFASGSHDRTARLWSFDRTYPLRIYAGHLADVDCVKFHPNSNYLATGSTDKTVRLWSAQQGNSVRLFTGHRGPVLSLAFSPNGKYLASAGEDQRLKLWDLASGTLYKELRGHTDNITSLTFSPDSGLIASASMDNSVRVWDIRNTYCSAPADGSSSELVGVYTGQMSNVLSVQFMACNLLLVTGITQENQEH
UniProt O95716: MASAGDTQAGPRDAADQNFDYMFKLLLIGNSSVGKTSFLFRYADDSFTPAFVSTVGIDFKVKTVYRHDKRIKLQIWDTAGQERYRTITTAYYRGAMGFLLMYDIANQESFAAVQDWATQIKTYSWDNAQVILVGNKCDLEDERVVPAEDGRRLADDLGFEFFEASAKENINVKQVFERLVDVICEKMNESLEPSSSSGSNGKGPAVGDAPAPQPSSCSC
UniProt O75781: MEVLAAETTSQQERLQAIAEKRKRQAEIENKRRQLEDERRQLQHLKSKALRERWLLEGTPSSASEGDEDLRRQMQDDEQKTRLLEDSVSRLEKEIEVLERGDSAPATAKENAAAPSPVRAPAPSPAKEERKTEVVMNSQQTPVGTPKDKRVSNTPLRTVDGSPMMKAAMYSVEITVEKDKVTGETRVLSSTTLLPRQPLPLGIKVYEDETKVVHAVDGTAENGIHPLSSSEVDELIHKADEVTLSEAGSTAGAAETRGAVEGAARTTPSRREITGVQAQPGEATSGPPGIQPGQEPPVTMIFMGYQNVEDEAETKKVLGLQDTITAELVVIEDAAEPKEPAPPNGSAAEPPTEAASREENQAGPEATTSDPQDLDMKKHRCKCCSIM
UniProt O60664: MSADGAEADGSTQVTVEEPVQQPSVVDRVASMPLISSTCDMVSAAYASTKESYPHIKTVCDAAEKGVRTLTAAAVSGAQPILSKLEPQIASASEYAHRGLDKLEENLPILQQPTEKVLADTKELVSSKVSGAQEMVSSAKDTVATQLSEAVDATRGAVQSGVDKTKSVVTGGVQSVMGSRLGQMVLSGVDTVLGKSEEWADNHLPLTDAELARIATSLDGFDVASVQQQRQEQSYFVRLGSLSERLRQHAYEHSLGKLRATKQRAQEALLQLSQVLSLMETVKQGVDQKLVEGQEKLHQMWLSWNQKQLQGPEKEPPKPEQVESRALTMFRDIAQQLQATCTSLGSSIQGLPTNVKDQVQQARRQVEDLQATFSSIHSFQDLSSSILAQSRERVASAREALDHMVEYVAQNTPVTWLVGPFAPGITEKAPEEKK
UniProt O95292, whole entry: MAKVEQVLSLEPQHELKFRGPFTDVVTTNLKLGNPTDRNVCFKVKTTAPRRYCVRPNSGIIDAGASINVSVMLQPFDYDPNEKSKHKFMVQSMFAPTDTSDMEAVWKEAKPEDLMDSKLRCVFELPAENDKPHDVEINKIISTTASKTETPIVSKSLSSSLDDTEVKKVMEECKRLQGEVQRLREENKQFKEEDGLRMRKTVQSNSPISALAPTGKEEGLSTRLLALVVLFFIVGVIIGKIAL
UniProt O95749: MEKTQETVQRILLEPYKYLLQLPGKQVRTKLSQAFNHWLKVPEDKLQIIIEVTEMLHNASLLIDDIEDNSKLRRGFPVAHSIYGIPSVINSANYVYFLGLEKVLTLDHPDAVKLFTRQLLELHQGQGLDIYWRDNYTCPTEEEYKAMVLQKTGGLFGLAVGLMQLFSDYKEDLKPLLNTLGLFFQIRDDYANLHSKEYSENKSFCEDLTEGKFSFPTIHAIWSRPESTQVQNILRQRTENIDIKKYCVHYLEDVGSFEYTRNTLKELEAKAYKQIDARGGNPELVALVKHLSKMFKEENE
UniProt O60784, whole entry: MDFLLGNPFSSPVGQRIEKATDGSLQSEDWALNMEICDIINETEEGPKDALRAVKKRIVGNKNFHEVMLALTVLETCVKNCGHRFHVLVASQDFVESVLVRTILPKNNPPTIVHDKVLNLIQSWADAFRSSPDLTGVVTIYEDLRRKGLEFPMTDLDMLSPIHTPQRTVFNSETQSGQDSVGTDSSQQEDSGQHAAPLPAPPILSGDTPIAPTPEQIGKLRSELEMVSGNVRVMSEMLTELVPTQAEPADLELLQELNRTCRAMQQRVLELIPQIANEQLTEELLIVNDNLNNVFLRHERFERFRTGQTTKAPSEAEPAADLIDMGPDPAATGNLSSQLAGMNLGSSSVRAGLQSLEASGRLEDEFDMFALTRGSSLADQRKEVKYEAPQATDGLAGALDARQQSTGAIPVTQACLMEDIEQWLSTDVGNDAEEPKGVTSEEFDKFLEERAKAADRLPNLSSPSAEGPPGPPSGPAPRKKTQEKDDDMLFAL
UniProt O94900: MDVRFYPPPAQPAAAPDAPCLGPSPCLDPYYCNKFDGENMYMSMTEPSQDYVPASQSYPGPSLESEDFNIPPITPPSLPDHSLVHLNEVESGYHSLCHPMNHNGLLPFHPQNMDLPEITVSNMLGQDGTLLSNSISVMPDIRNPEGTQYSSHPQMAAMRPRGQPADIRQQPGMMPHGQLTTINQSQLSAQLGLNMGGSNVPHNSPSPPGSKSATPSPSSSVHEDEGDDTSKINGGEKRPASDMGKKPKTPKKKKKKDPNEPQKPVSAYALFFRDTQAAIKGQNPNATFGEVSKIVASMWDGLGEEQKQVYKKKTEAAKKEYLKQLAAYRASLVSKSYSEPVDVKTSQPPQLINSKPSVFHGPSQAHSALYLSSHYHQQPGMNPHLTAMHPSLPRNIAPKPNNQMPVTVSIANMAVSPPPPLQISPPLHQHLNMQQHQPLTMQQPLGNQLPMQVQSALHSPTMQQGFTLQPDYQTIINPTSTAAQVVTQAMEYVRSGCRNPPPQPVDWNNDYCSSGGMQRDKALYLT
UniProt O76094: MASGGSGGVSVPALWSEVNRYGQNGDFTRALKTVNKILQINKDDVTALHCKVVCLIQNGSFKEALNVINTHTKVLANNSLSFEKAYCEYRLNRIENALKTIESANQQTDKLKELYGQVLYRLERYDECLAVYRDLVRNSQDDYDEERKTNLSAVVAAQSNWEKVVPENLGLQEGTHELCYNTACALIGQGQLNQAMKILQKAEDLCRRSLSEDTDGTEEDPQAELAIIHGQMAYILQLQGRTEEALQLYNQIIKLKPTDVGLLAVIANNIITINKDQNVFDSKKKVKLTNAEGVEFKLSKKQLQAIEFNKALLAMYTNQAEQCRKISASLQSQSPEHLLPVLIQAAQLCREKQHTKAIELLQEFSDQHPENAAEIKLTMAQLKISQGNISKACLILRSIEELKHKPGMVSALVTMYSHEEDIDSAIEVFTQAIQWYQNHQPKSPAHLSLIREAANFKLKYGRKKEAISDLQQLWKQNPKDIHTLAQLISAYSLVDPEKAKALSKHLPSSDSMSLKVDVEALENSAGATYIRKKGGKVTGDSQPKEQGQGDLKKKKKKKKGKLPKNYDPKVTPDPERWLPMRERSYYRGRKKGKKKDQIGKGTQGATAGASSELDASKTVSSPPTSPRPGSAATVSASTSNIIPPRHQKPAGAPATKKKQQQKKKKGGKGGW
UniProt O94763, whole entry: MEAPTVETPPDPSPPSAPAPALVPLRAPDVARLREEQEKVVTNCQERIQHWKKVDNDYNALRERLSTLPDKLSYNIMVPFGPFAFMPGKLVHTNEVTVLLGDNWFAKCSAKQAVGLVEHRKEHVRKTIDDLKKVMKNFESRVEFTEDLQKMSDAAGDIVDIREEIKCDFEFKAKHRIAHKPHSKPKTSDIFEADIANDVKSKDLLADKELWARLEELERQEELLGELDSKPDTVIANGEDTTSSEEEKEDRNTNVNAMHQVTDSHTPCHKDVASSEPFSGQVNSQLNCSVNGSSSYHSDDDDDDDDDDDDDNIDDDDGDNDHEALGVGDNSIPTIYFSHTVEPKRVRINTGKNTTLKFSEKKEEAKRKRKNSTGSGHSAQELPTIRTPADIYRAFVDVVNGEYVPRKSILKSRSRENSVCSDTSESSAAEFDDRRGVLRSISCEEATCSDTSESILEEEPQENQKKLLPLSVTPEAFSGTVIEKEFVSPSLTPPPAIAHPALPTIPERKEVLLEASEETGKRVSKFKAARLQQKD
UniProt O60934: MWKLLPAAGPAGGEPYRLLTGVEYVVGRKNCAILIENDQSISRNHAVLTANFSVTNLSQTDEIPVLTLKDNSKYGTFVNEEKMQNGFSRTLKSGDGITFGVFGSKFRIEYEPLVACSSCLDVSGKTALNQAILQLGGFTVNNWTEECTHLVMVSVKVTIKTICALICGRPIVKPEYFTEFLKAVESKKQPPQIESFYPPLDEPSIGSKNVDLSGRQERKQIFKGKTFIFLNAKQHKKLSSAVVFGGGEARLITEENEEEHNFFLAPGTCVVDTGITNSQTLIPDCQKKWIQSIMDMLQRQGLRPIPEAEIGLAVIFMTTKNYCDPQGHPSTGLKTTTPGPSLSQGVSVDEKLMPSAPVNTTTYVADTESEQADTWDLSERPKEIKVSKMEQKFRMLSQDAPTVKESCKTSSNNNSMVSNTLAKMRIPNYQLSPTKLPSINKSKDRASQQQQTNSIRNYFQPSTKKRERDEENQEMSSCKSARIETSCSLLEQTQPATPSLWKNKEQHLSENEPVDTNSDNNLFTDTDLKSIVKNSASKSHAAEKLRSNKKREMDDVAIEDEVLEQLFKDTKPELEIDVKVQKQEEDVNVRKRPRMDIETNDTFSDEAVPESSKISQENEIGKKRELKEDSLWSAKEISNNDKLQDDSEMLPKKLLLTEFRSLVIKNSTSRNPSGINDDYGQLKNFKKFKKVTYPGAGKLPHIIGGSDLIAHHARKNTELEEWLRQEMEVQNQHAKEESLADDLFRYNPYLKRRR
UniProt O75475: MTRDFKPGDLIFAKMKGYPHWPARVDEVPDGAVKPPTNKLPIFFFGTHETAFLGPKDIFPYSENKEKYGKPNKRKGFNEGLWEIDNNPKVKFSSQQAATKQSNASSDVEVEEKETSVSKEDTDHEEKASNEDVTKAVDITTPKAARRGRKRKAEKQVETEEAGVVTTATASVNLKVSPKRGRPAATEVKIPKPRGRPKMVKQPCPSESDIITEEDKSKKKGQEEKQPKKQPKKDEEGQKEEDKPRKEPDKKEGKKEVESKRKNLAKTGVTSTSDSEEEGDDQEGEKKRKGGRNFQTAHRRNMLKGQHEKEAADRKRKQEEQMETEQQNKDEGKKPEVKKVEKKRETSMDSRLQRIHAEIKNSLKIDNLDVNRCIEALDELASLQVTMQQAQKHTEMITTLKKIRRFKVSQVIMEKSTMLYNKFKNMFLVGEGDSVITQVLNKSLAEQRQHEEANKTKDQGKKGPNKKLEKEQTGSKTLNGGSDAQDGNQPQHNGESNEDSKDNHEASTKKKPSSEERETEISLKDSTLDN

Target	NP40-soluble protein abundance (concentration: 1mM)	NP40-soluble protein abundance (concentration: 2mM)	NP40-soluble protein abundance (concentration: 4mM)	NP40-soluble protein abundance (concentration: 6mM)	NP40-soluble protein abundance (concentration: 8mM)	NP40-soluble protein abundance (concentration: 10mM)
UniProt O75150 and related entries	0.958 ± 0.026	0.95 ± 0.018	0.9503 ± 0.0064	0.983 ± 0.013	0.96 ± 0.018	0.972 ± 0.022
UniProt O95475	1.07 ± 0.08	1.1 ± 0.045	1.13 ± 0.11	1.09 ± 0.068	1.09 ± 0.076	1.07 ± 0.086
SMPD2 (UniProt O60906)	0.962 ± 0.059	0.971 ± 0.033	0.926 ± 0.12	0.917 ± 0.019	0.948 ± 0.11	1.02 ± 0.11
CIAO1 (UniProt O76071)	1.03 ± 0.11	0.985 ± 0.062	0.995 ± 0.034	0.913 ± 0.07	1 ± 0.016	0.998 ± 0.05
UniProt O75964	0.865 ± 0.016	0.886 ± 0.054	0.86 ± 0.077	0.823 ± 0.05	0.812 ± 0.023	0.803 ± 0.084
UTP20 (UniProt O75691)	1.03 ± 0.063	1.07 ± 0.059	1.23 ± 0.1	1.14 ± 0.12	1.23 ± 0.084	1.31 ± 0.031
TAF5L (UniProt O75529)	1.11 ± 0.073	1.08 ± 0.091	1.16 ± 0.11	1.05 ± 0.1	1.16 ± 0.078	1.23 ± 0.17
UniProt O94855 and related entries	0.999 ± 0.14	1.01 ± 0.084	0.966 ± 0.068	0.927 ± 0.15	0.949 ± 0.035	0.982 ± 0.078
UniProt O75935 and related entries	0.947 ± 0.053	0.913 ± 0.034	0.931 ± 0.054	0.871 ± 0.1	0.941 ± 0.071	0.859 ± 0.09
RNASEH2A (UniProt O75792)	0.973 ± 0.014	0.972 ± 0.037	0.932 ± 0.033	0.99 ± 0.044	0.951 ± 0.033	0.922 ± 0.049
UniProt O75037 and related entries	1.08 ± 0.022	1.1 ± 0.037	1.1 ± 0.037	1.14 ± 0.058	1.09 ± 0.025	1.09 ± 0.047
RAB3D (UniProt O95716)	0.94 ± 0.12	0.945 ± 0.11	0.962 ± 0.1	0.947 ± 0.12	0.949 ± 0.053	0.963 ± 0.07
PALM (UniProt O75781)	0.919 ± 0.071	0.938 ± 0.049	0.955 ± 0.039	0.939 ± 0.02	0.888 ± 0.032	0.892 ± 0.082
UniProt O75554 and related entries	1.05 ± 0.042	1.073 ± 0.0093	1.07 ± 0.068	1.18 ± 0.024	1.08 ± 0.034	1.142 ± 0.0023
UniProt O75093	0.996 ± 0.034	1 ± 0.048	1.05 ± 0.094	1.11 ± 0.13	1.12 ± 0.14	1.18 ± 0.099
UniProt O75179 and related entries	0.957 ± 0.034	0.975 ± 0.065	0.966 ± 0.042	0.99 ± 0.044	0.941 ± 0.015	0.991 ± 0.031
UniProt O94901-9|E9PHI4 and related entries	1.06 ± 0.082	1.08 ± 0.13	1.09 ± 0.16	1.04 ± 0.12	1.11 ± 0.17	1.09 ± 0.15
UniProt O76021 and related entries	1.09 ± 0.12	1.16 ± 0.11	1.22 ± 0.094	1.31 ± 0.17	1.28 ± 0.067	1.46 ± 0.17
UniProt O60888 and related entries	0.892 ± 0.066	0.949 ± 0.11	0.919 ± 0.02	0.98 ± 0.1	0.914 ± 0.063	0.852 ± 0.11
UniProt O60664	0.93 ± 0.036	0.935 ± 0.017	0.927 ± 0.018	0.957 ± 0.014	0.905 ± 0.034	0.868 ± 0.057

Target	NP40-soluble protein abundance (concentration: 1mM)	NP40-soluble protein abundance (concentration: 2mM)	NP40-soluble protein abundance (concentration: 4mM)	NP40-soluble protein abundance (concentration: 6mM)	NP40-soluble protein abundance (concentration: 8mM)	NP40-soluble protein abundance (concentration: 10mM)
VAPB (UniProt O95292)	0.977 ± 0.074	0.953 ± 0.03	0.944 ± 0.04	1.01 ± 0.025	0.932 ± 0.02	0.909 ± 0.025
UniProt O94916 and related entries	0.944 ± 0.099	0.961 ± 0.061	0.989 ± 0.068	0.996 ± 0.042	0.941 ± 0.054	0.977 ± 0.04
UniProt O95169 and related entries	0.964 ± 0.11	0.906 ± 0.051	0.898 ± 0.077	0.96 ± 0.086	0.993 ± 0.094	0.854 ± 0.12
UniProt O95749 and related entries	1 ± 0.032	0.987 ± 0.049	0.969 ± 0.03	0.961 ± 0.026	0.957 ± 0.054	0.926 ± 0.052
ROCK2 (UniProt O75116)	0.958 ± 0.046	0.97 ± 0.025	0.96 ± 0.04	0.981 ± 0.026	0.959 ± 0.018	0.961 ± 0.022
UniProt O95273 and related entries	1.03 ± 0.023	1.07 ± 0.028	0.961 ± 0.038	0.909 ± 0.03	0.96 ± 0.14	1.01 ± 0.043
TOM1 (UniProt O60784)	0.871 ± 0.045	0.938 ± 0.041	0.956 ± 0.043	0.941 ± 0.05	0.94 ± 0.072	0.935 ± 0.018
UniProt O94804	0.98 ± 0.026	0.9785 ± 0.0081	0.973 ± 0.011	0.9999 ± 0.0083	0.9482 ± 0.0093	0.975 ± 0.026
B3GAT3 (UniProt O94766)	0.976 ± 0.012	0.973 ± 0.038	0.924 ± 0.023	0.99 ± 0.026	0.932 ± 0.015	0.965 ± 0.023
NDUFS6 (UniProt O75380)	0.961 ± 0.091	0.901 ± 0.041	0.843 ± 0.039	0.953 ± 0.12	0.866 ± 0.062	0.857 ± 0.033
UniProt O95394 and related entries	1.03 ± 0.047	1.03 ± 0.066	1 ± 0.053	0.978 ± 0.092	1.02 ± 0.057	0.996 ± 0.048
SMC2 (UniProt O95347)	0.99 ± 0.018	0.978 ± 0.012	0.961 ± 0.016	1.01 ± 0.05	0.98 ± 0.03	0.972 ± 0.032
TOX (UniProt O94900)	0.884 ± 0.082	0.913 ± 0.034	0.883 ± 0.052	0.945 ± 0.082	0.824 ± 0.071	0.815 ± 0.078
UniProt O75054 and related entries	0.943 ± 0.098	0.936 ± 0.079	0.944 ± 0.095	0.929 ± 0.12	0.868 ± 0.046	0.947 ± 0.043
SURF6 (UniProt O75683)	0.993 ± 0.081	0.964 ± 0.037	0.988 ± 0.068	1.04 ± 0.082	0.987 ± 0.044	1 ± 0.084
UniProt O75419 and related entries	1 ± 0.11	1.01 ± 0.079	1.03 ± 0.096	0.97 ± 0.15	1.02 ± 0.076	1.04 ± 0.092
UniProt O95297 and related entries	0.927 ± 0.075	0.908 ± 0.059	0.859 ± 0.043	0.92 ± 0.062	0.834 ± 0.032	0.866 ± 0.081
ZC3H11A (UniProt O75152)	0.871 ± 0.028	0.899 ± 0.028	0.972 ± 0.027	1.1 ± 0.025	1.12 ± 0.026	1.17 ± 0.033
FAM20B (UniProt O75063)	1.06 ± 0.049	1.017 ± 0.0045	1.03 ± 0.077	0.999 ± 0.074	1.03 ± 0.016	1.03 ± 0.018
UniProt O60749 and related entries	0.948 ± 0.029	0.968 ± 0.01	0.9157 ± 0.0022	0.989 ± 0.031	0.917 ± 0.022	0.919 ± 0.022

Exported comma-delimited: part of the list above.
Target,NP40-soluble protein abundance (concentration: 1mM),NP40-soluble protein abundance (concentration: 2mM),NP40-soluble protein abundance (concentration: 4mM),NP40-soluble protein abundance (concentration: 6mM),NP40-soluble protein abundance (concentration: 8mM),NP40-soluble protein abundance (concentration: 10mM)
ROCK2 (UniProt O75116),0.958 ± 0.046,0.97 ± 0.025,0.96 ± 0.04,0.981 ± 0.026,0.959 ± 0.018,0.961 ± 0.022
UniProt O95273 and related entries,1.03 ± 0.023,1.07 ± 0.028,0.961 ± 0.038,0.909 ± 0.03,0.96 ± 0.14,1.01 ± 0.043

(list continues)

Target	NP40-soluble protein abundance (concentration: 1mM)	NP40-soluble protein abundance (concentration: 2mM)	NP40-soluble protein abundance (concentration: 4mM)	NP40-soluble protein abundance (concentration: 6mM)	NP40-soluble protein abundance (concentration: 8mM)	NP40-soluble protein abundance (concentration: 10mM)
AGFG2 (UniProt O95081)	0.979 ± 0.18	0.945 ± 0.063	0.902 ± 0.075	0.921 ± 0.084	0.953 ± 0.051	0.926 ± 0.1
UniProt O94986 and related entries	0.952 ± 0.16	0.991 ± 0.14	1.13 ± 0.093	1.11 ± 0.14	0.962 ± 0.099	1.01 ± 0.059
DNAJA2 (UniProt O60884)	1.03 ± 0.038	0.978 ± 0.025	0.954 ± 0.028	1.02 ± 0.089	0.996 ± 0.058	1.02 ± 0.073
UniProt O75155 and related entries	0.973 ± 0.056	0.934 ± 0.042	0.925 ± 0.028	0.895 ± 0.014	0.914 ± 0.04	0.939 ± 0.034
SRP72 (UniProt O76094)	1 ± 0.013	0.993 ± 0.044	0.979 ± 0.035	1.04 ± 0.038	1.06 ± 0.05	1.05 ± 0.04
UniProt O95271 and related entries	1.06 ± 0.059	1.02 ± 0.011	1.07 ± 0.075	1.13 ± 0.049	1.09 ± 0.12	1.16 ± 0.059
ERLIN1 (UniProt O75477)	1.03 ± 0.054	0.983 ± 0.076	0.944 ± 0.049	1.02 ± 0.18	0.968 ± 0.069	0.982 ± 0.064
UniProt O94763 and related entries	0.96 ± 0.029	0.956 ± 0.018	0.9385 ± 0.0087	1.01 ± 0.11	0.968 ± 0.025	0.955 ± 0.019
UniProt O95155 and related entries	1.01 ± 0.053	1.01 ± 0.045	0.991 ± 0.053	0.958 ± 0.066	0.984 ± 0.037	0.987 ± 0.022
ETHE1 (UniProt O95571)	0.961 ± 0.071	0.949 ± 0.07	0.955 ± 0.1	0.971 ± 0.093	0.926 ± 0.069	0.927 ± 0.064
UniProt O75340 and related entries	1.01 ± 0.054	1.04 ± 0.052	1.03 ± 0.033	0.955 ± 0.13	1.05 ± 0.038	1.04 ± 0.036
CD2BP2 (UniProt O95400)	1.03 ± 0.079	1.13 ± 0.12	1.24 ± 0.15	1.36 ± 0.21	1.36 ± 0.18	1.38 ± 0.21
UniProt O75808 and related entries	0.882 ± 0.068	0.945 ± 0.082	0.974 ± 0.1	0.949 ± 0.13	0.893 ± 0.12	0.913 ± 0.089
UniProt O94973 and related entries	1.05 ± 0.051	1.07 ± 0.05	1.07 ± 0.057	1.04 ± 0.064	1.04 ± 0.039	1.09 ± 0.055
UniProt O60831 and related entries	0.955 ± 0.052	1.01 ± 0.044	0.939 ± 0.016	0.931 ± 0.057	0.932 ± 0.025	0.931 ± 0.016
UniProt O75592 and related entries	1.02 ± 0.094	0.971 ± 0.053	1.07 ± 0.17	1.07 ± 0.19	1.05 ± 0.19	1.04 ± 0.13
TIPRL (UniProt O75663)	1.02 ± 0.047	0.949 ± 0.053	0.951 ± 0.057	0.936 ± 0.097	0.979 ± 0.058	0.915 ± 0.037
NBN (UniProt O60934)	1.04 ± 0.062	1.02 ± 0.039	1.03 ± 0.039	1.05 ± 0.054	1.03 ± 0.035	1.02 ± 0.015
UniProt O75475 and related entries	1.04 ± 0.026	1.1 ± 0.012	1.12 ± 0.02	1.23 ± 0.027	1.18 ± 0.057	1.22 ± 0.036
UniProt O75494 and related entries	1.26 ± 0.081	1.3 ± 0.09	1.42 ± 0.13	1.5 ± 0.18	1.49 ± 0.11	1.56 ± 0.2
